The results in this text go back to publication PMC4344780.

In assay [1] the target is T1, Adipose triglyceride lipase (rat (endogenous in neonatal rat cardiomyocytes)) (UniProt P0C548).
T1 sequence: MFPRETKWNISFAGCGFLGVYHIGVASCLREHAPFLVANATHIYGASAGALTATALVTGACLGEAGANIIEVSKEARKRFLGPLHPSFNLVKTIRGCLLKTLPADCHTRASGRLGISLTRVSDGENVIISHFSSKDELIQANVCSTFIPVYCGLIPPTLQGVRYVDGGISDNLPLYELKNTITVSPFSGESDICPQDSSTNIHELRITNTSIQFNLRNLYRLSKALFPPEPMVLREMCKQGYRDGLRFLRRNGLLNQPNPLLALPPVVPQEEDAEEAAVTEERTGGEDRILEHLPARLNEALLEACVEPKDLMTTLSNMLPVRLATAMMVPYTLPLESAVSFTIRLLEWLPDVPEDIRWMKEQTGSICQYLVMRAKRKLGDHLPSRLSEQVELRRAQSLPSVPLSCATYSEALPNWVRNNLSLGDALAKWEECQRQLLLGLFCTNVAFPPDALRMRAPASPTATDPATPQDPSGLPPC
The assay is described as follows: co-IP; lysates of primary rat cardiomyocytes, pre-cleared with protein A/G-agarose; incubated overnight at 4°C with anti-PEDF or anti-ATGL antibody in Hepes 50 mM pH 7.4, NaCl 150 mM, 10% glycerol, Triton X-100 1%, Nonidet P-40 0.5%; protein A-Sepharose CL-4B 2 h at 4°C; blotted for the other protein.

Assay [2] deals with Pigment epithelium-derived factor (rat (endogenous in neonatal rat cardiomyocytes)). Described as above.

Results are given in words; binding and its absence hold for the method and conditions named. In cells and extracts the contact can be indirect. Binding can be weak; no strength is given.

With Pigment epithelium-derived factor, the binding entry in assay [1] was “binds”.

B1: Adipose triglyceride lipase (enzyme, UniProt P0C548 1-478)
chain: MFPRETKWNISFAGCGFLGVYHIGVASCLREHAPFLVANATHIYGASAGALTATALVTGACLGEAGANIIEVSKEARKRFLGPLHPSFNLVKTIRGCLLKTLPADCHTRASGRLGISLTRVSDGENVIISHFSSKDELIQANVCSTFIPVYCGLIPPTLQGVRYVDGGISDNLPLYELKNTITVSPFSGESDICPQDSSTNIHELRITNTSIQFNLRNLYRLSKALFPPEPMVLREMCKQGYRDGLRFLRRNGLLNQPNPLLALPPVVPQEEDAEEAAVTEERTGGEDRILEHLPARLNEALLEACVEPKDLMTTLSNMLPVRLATAMMVPYTLPLESAVSFTIRLLEWLPDVPEDIRWMKEQTGSICQYLVMRAKRKLGDHLPSRLSEQVELRRAQSLPSVPLSCATYSEALPNWVRNNLSLGDALAKWEECQRQLLLGLFCTNVAFPPDALRMRAPASPTATDPATPQDPSGLPPC
For B1, the binding result in assay [2] is “binds”.
